Results as given in patent publication US20180217132, “MEASUREMENT METHOD AND MEASUREMENT DEVICE” (KYOCERA CORPORATION, published 2018).

Tests used:
[1] = system: Hemoglobin A1c (HbA1c, glycated hemoglobin); test: SPR; conditions: 2'-F at A and U, purified native protein
Hemoglobin A0 (HbA0) = test: SPR; conditions: 2'-F at A and U; Biacore T200, HBS-P + 1 mM MgCl2 pH 7.4; method of Kd not explicitly stated; purified native protein

Q: How did the Kd ([1]; Biacore T200, HBS-P + 1 mM MgCl2 pH 7.4, method of Kd not explicitly stated) turn out when “GGGAUAGGAUCCACAUCUACGUAUUAGAUUAGGACCAAUACGUGGUUGGCCCCCCCUCAACGACGCAGUUCACUGCAGACUUGACGAAGCUUAAAAAAAAAAAAAAAAAA [RNA aptamer B]” was run?
A: 0.05 µM

Q: What about the Kd (Hemoglobin A0 (HbA0)) of the same sequence?
A: 1 µM

Q: Does “GGGAUAGGAUCCACAUCUACGUAUUACGGCAUUAUUAGGACCAAUGCUGAGUACGGCGCACAGCUUUUUUCACUGCAGACUUGACGAAGCUUAAAAAAAAAAAAAAAAAA [RNA aptamer A]” bind ([1]; not bound at all or extremely low binding, HBS-P + 1 mM MgCl2)?
A: no binding

For part of these data: Negatives hold for the conditions tested. Construct, isoform or probe ends are uncertain for at least one entry.
